# Data from the supplement of paper PMC8728848.
# The list shows a part of the results.
# B1: GS7807F-bth-514-18-514 (Bacteroides thetaiotaomicron) (protein)
# chain: AGSCTGNFEEYNTNQFQIHEADPSTLMKSMIETIVNIQQNDSQMMDQMVGQLGGYLTCANVWSGTNFGTFNQSDAWNAGPWNTNFEKIYGNFFQIQEATNESGHYYAFARMIRAITMLRVADCYGPMPYSQVKKGNFYVAYDTEEQVYKNIMEDFASAANVLYNYYKDTNGNAPLASNDPVFSGNYANWARLANSMRLRVAIRISTAYPEMAKENAEAAASHEAGLIEANNDNAMMDCGSQTNPYQLAAVSWGDLRVNANIVDYMNGYGDPRMSKYFNHSTFTGHTQEYVGMRSGEDGFAKSDVAGYSIPAITGTSKLLVFCAAETAFLRAEGKLKNWSVGNKSAKEYYEEGIKLSMEQYGTTMPDNYLTNTEKPTVSHNNDPRGHAYTISNTVAVAWNDNNEEENLQRIITQKWIANYPLGLEAWAEYRRTGYPELYPCIDNLSPSGVDSKRGMRRLRFPYTEVQNNHSNYQQGVSYLKNGGPDNEATDLSWGKTN
# How the values were obtained:
# Assay in all cases: glycan array binding signal (z-score within array); higher = stronger binding
# Settings in all cases: glycan notation: IUPAC condensed, linker removed
# [1] = target: Neu5Ac(a2-6)Gal(b1-4)GlcNAc(b1-6)GalNAc
# How it was run: (§1)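 The binding signal is a Z-score computed within each array. Data were drawn from 3228 arrays in the Consortium for Functional Glycomics database, restricted to those with a known protein sequence. Scores were averaged over arrays of the same protein sequence at different concentrations or buffers, and over linkers, and negative values can be taken as non-binding.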
# [2] = target: Neu5Ac(a2-6)Gal(b1-4)GlcNAc(b1-6)[Gal(b1-3)GlcNAc(b1-3)]Gal(b1-4)Glc
# How it was run: as §1
# [3] = target: Neu5Ac(a2-6)Gal(b1-4)GlcNAc(b1-6)[Gal(b1-3)]GalNAc
# How it was run: as §1
# [4] = target: Neu5Ac(a2-6)Gal(b1-4)GlcNAc6S
# How it was run: as §1
# Neu5Ac(a2-6)GalNAc = target: Neu5Ac(a2-6)GalNAc
# How it was run: as §1
# [5] = target: Neu5Ac(a2-6)GalNAc(b1-4)GlcNAc
# How it was run: as §1
# [6] = target: Neu5Ac(a2-6)GalNAc(b1-4)GlcNAc6S
# How it was run: as §1
# [7] = target: Neu5Ac(a2-6)GlcNAc(b1-4)GlcNAc
# How it was run: as §1
# [8] = target: Neu5Ac(a2-6)GlcNAc(b1-4)GlcNAc(b1-4)GlcNAc
# How it was run: as §1
# Neu5Ac(a2-8)Neu5Ac = target: Neu5Ac(a2-8)Neu5Ac
# How it was run: as §1
# [9] = target: Neu5Ac(a2-8)Neu5Ac(a2-3)Gal(b1-3)GalNAc(b1-4)[Neu5Ac(a2-3)]Gal(b1-4)Glc
# How it was run: as §1
# [10] = target: Neu5Ac(a2-8)Neu5Ac(a2-3)Gal(b1-3)GalNAc(b1-4)[Neu5Ac(a2-8)Neu5Ac(a2-3)]Gal(b1-4)Glc
# How it was run: as §1
# [11] = target: Neu5Ac(a2-8)Neu5Ac(a2-3)Gal(b1-4)Glc
# How it was run: as §1
# [12] = target: Neu5Ac(a2-8)Neu5Ac(a2-3)Gal(b1-4)GlcNAc
# How it was run: as §1
# [13] = target: Neu5Ac(a2-8)Neu5Ac(a2-3)[Gal(b1-3)GalNAc(b1-4)]Gal(b1-4)Glc
# How it was run: as §1
# [14] = target: Neu5Ac(a2-8)Neu5Ac(a2-3)[GalNAc(b1-4)]Gal(b1-4)Glc
# How it was run: as §1
# [15] = target: Neu5Ac(a2-8)Neu5Ac(a2-8)Neu5Ac
# How it was run: as §1
# [16] = target: Neu5Ac(a2-8)Neu5Ac(a2-8)Neu5Ac(a2-3)Gal(b1-4)Glc
# How it was run: as §1
# [17] = target: Neu5Ac(a2-8)Neu5Ac(a2-8)Neu5Ac(a2-3)[Gal(b1-3)GalNAc(b1-4)]Gal(b1-4)Glc
# How it was run: as §1
# [18] = target: Neu5Ac(a2-8)Neu5Ac(a2-8)Neu5Ac(a2-3)[GalNAc(b1-4)]Gal(b1-4)Glc
# How it was run: as §1
# [19] = target: Neu5Ac(a2-8)Neu5Ac(a2-8)Neu5Ac(a2-8)Neu5Ac(a2-3)[GalNAc(b1-4)]Gal(b1-4)Glc
# How it was run: as §1
# [20] = target: Neu5Ac(a2-8)Neu5Gc(a2-3)Gal(b1-4)GlcNAc
# How it was run: as §1
# [21] = target: Neu5Ac(b2-6)Gal(b1-4)GlcNAc
# How it was run: as §1
# Neu5Ac(b2-6)GalNAc = target: Neu5Ac(b2-6)GalNAc
# How it was run: as §1
# [22] = target: Neu5Ac9Ac(a2-3)Gal(b1-3)GlcNAc
# How it was run: as §1
# [23] = target: Neu5Ac9Ac(a2-3)Gal(b1-4)GlcNAc
# How it was run: as §1
# [24] = target: Neu5Ac9Ac(a2-6)Gal(b1-4)GlcNAc
# How it was run: as §1
# [25] = target: Neu5Gc(a2-3)Gal(b1-3)GlcNAc
# How it was run: as §1
# [26] = target: Neu5Gc(a2-3)Gal(b1-3)[Fuc(a1-4)]GlcNAc
# How it was run: as §1
# Neu5Gc(a2-3)Gal(b1-4)Glc = target: Neu5Gc(a2-3)Gal(b1-4)Glc
# How it was run: as §1
# [27] = target: Neu5Gc(a2-3)Gal(b1-4)GlcNAc
# How it was run: as §1
# [28] = target: Neu5Gc(a2-3)Gal(b1-4)GlcNAc(b1-3)Gal(b1-4)GlcNAc(b1-2)Man(a1-3)[Neu5Gc(a2-3)Gal(b1-4)GlcNAc(b1-3)Gal(b1-4)GlcNAc(b1-2)Man(a1-6)]Man(b1-4)GlcNAc(b1-4)GlcNAc
# How it was run: as §1
# [29] = target: Neu5Gc(a2-3)Gal(b1-4)[Fuc(a1-3)]GlcNAc
# How it was run: as §1
# [30] = target: Neu5Gc(a2-6)Gal(b1-4)GlcNAc
# How it was run: as §1
# Neu5Gc(a2-6)GalNAc = target: Neu5Gc(a2-6)GalNAc
# How it was run: as §1
# [31] = target: Neu5Gc(a2-8)Neu5Ac(a2-3)Gal(b1-4)GlcNAc
# How it was run: as §1
# [32] = target: Neu5Gc(a2-8)Neu5Gc(a2-3)Gal(b1-4)GlcNAc
# How it was run: as §1
# [33] = target: Neu5Gc(a2-8)Neu5Gc(a2-3)Gal(b1-4)GlcNAc(b1-3)Gal(b1-4)GlcNAc
# How it was run: as §1
binder,measurement,setting,value
B1,glycan array binding signal (z-score),[1],-0.743
same,glycan array binding signal (z-score),[2],-0.38
same,glycan array binding signal (z-score),[3],-0.639
same,glycan array binding signal (z-score),[4],-0.827
same,glycan array binding signal (z-score),Neu5Ac(a2-6)GalNAc,-0.868
same,glycan array binding signal (z-score),[5],-0.875
same,glycan array binding signal (z-score),[6],-0.466
same,glycan array binding signal (z-score),[7],-0.714
same,glycan array binding signal (z-score),[8],-0.801
same,glycan array binding signal (z-score),Neu5Ac(a2-8)Neu5Ac,-0.857
same,glycan array binding signal (z-score),[9],-0.844
same,glycan array binding signal (z-score),[10],0.524
same,glycan array binding signal (z-score),[11],-0.877
same,glycan array binding signal (z-score),[12],-0.901
same,glycan array binding signal (z-score),[13],0.122
same,glycan array binding signal (z-score),[14],3.32
same,glycan array binding signal (z-score),[15],-0.655
same,glycan array binding signal (z-score),[16],-0.82
same,glycan array binding signal (z-score),[17],-0.798
same,glycan array binding signal (z-score),[18],1.19
same,glycan array binding signal (z-score),[19],2.31
same,glycan array binding signal (z-score),[20],-0.888
same,glycan array binding signal (z-score),[21],-0.329
same,glycan array binding signal (z-score),Neu5Ac(b2-6)GalNAc,-0.845
same,glycan array binding signal (z-score),[22],-0.605
same,glycan array binding signal (z-score),[23],-0.825
same,glycan array binding signal (z-score),[24],0.148
same,glycan array binding signal (z-score),[25],-0.886
same,glycan array binding signal (z-score),[26],-0.819
same,glycan array binding signal (z-score),Neu5Gc(a2-3)Gal(b1-4)Glc,-0.586
same,glycan array binding signal (z-score),[27],-0.886
same,glycan array binding signal (z-score),[28],-0.775
same,glycan array binding signal (z-score),[29],2.31
same,glycan array binding signal (z-score),[30],-0.33
same,glycan array binding signal (z-score),Neu5Gc(a2-6)GalNAc,-0.758
same,glycan array binding signal (z-score),[31],-0.565
same,glycan array binding signal (z-score),[32],-0.884
same,glycan array binding signal (z-score),[33],-0.908

# Quoted from above for reference:
binder,measurement,setting,value
B1,glycan array binding signal (z-score),[29],2.31
same,glycan array binding signal (z-score),[30],-0.33
